Laboratory results from publication PMC5520852.

Amino acid sequences for entries named in this document (tags omitted).
UniProt Q99JR8: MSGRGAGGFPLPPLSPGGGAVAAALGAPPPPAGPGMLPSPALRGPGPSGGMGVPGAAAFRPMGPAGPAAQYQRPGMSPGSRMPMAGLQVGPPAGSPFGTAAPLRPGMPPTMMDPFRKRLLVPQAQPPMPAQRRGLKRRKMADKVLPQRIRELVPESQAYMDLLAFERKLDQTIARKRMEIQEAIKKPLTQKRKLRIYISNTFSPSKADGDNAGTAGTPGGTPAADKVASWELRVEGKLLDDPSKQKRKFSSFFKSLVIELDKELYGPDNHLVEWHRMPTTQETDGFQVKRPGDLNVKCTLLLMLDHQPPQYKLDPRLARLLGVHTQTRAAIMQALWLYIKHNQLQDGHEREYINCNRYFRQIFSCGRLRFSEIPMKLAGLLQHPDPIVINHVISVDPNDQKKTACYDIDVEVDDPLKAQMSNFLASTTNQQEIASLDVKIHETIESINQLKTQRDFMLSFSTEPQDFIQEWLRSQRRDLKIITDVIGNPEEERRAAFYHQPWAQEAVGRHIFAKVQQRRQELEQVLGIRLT
UniProt Q61466: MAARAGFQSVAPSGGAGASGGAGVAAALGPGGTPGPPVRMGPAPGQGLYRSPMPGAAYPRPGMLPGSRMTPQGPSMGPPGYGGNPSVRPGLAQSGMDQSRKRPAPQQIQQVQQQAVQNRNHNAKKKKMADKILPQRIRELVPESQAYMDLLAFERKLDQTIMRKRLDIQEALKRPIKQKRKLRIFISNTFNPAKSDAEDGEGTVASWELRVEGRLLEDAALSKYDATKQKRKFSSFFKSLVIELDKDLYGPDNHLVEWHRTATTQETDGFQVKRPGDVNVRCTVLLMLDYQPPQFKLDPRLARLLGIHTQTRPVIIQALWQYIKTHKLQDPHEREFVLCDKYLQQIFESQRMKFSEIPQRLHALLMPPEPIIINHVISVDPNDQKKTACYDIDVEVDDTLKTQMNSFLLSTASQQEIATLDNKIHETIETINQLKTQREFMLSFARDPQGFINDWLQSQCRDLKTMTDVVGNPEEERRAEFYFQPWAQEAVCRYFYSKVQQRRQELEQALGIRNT
UniProt Q6P9Z1: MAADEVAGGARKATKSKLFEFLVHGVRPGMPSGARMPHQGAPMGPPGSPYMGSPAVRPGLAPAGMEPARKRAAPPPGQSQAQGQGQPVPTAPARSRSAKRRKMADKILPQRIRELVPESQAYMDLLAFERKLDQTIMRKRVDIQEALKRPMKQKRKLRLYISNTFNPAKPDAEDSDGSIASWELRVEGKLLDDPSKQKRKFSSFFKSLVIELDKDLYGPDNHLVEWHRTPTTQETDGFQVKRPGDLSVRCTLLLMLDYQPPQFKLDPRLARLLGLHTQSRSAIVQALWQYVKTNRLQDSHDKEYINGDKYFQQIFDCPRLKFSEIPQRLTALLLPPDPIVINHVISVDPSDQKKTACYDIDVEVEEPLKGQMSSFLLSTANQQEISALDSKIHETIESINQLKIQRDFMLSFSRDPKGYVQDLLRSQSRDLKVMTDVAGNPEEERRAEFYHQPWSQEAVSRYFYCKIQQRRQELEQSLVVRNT
UniProt Q3TKT4: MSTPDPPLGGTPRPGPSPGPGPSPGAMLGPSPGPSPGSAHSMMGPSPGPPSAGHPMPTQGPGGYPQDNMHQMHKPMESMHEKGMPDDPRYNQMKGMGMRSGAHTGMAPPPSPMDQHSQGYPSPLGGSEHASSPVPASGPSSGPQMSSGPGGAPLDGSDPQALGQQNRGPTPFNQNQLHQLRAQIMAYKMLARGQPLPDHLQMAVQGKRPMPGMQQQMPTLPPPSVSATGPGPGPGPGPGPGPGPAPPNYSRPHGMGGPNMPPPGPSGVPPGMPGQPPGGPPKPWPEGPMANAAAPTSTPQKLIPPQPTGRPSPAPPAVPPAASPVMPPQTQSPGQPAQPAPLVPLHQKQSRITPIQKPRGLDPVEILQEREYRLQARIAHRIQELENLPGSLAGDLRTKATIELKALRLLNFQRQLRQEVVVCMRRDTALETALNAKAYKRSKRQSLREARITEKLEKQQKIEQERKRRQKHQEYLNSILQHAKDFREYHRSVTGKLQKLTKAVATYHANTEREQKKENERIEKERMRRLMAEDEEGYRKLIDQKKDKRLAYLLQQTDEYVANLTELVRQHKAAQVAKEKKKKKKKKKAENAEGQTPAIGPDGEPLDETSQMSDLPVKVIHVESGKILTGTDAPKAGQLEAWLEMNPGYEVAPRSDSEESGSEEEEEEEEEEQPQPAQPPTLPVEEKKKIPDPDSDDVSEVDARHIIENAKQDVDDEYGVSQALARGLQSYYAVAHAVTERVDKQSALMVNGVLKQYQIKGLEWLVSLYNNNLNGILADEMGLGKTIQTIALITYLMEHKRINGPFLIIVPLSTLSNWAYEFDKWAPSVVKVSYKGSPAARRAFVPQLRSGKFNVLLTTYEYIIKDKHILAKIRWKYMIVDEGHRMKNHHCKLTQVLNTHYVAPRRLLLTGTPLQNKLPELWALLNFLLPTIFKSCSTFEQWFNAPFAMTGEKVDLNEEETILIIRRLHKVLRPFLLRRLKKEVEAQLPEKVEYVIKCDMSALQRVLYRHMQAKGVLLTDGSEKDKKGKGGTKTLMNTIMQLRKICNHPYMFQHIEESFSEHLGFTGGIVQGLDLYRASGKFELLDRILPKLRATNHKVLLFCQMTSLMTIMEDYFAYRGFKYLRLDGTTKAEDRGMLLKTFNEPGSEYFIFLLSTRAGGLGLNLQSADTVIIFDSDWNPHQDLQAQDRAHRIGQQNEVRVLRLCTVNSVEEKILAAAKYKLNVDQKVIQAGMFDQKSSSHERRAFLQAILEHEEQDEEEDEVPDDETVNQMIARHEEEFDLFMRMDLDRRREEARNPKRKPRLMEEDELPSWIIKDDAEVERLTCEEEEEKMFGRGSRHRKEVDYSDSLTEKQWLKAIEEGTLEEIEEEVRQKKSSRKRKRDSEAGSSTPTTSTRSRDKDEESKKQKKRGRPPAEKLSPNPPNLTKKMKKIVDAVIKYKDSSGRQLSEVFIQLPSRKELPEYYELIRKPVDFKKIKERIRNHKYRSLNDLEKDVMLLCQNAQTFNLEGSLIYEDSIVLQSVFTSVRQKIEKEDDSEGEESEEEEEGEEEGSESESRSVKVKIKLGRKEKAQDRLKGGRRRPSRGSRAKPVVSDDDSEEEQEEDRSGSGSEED

molecular target: HA-tagged Baf60b (full length) (UniProt Q99JR8); assay: affinity purification with mass spectrometry; co-IP samples of Baf60b and the ΔSWIB mutant separated on 8% SDS-PAGE, in-gel trypsin digestion, LC-MS/MS (Orbitrap Fusion), MaxQuant LFQ normalised to Baf60b (Smarcd2)

Q: With Baf60a (from UniProt Q61466 1-515) as the substance, how does the binding read?
A: no binding

Q: With Baf60c (from UniProt Q6P9Z1 1-483) as the substance, how does the binding read?
A: no binding

Q: Brg1 (from UniProt Q3TKT4 1-1613) was tested. Which binding did it give?
A: binds

Results are given in words; binding and its absence hold for the method and conditions named. In cells and extracts the contact can be indirect. These calls come from enrichment with a bait or labelling near it, and not all partners need be listed. No binding means not detected with the bait.
